# Assay results from the supplement of paper PMC8728848.
# Some of the results follow.
# B1: Endo180d1-D4 (Homo sapiens), Q9UBG0 (protein)
# chain: MGPGRPAPAPWPRHLLRCVLLLGCLHLGRPGAPGDAALPEPNVFLIFSHGLQGCLEAQGGQVRVTPACNTSLPAQRWKWVSRNRLFNLGTMQCLGTGWPGTNTTASLGMYECDREALNLRWHCRTLGDQLSLLLGARTSNISKPGTLERGDQTRSGQWRIYGSEEDLCALPYHEVYTIQGNSHGKPCTIPFKYDNQWFHGCTSTGREDGHLWCATTQDYGKDERWGFCPIKSNDCETFWDKDQLTDSCYQFNFQSTLSWREAWASCEQQGADLLSITEIHEQTYINGLLTGYSSTLWIGLNDLDTSGGWQWSDNSPLKYLNWESDQPDNPSEENCGVIRTESSGGWQNRDCSIALPYVCKKKPNATAEPTPPDRWANVKVECEPSWQPFQGHCYRLQAEKRSWQESKKACLRGGGDLVSIHSMAELEFITKQIKQEVEELWIGLNDLKLQMNFEWSDGSLVSFTHWHPFEPNNFRDSLEDCVTIWGPEGRWNDSPCNQSLPSICKKAGQLSQGAAEEDHGCRKGWTWHSPSCYWLGEDQVTYSEARRLCTDHGSQLVTITNRFEQAFVSSLIYNWEGEYFWTALQDLNSTGSFFWLSGDEVMYTHWNRDQPGYSRGGCVALATGSAMGLWEVKNCTSFRARYICRQSLGTPVTPELPGPDPTPSLTGSCPQGWASDTKLRYCYKVFSSERLQDKKSWVQAQGACQELGAQLLSLASYEEEHFVANMLNKIFGESEPEIHEQHWFWIGLNRRDPRGGQSWRWSDGVGFSYHNFDRSRHDDDDIRGCAVLDLASLQWVAMQCDTQLDWICKIPRGTDVREPDDSPQGRREWLRFQEAEYKFFEHHSTWAQAQRICTWFQAELTSVHSQAELDFLSHNLQKFSRAQEQHWWIGLHTSESDGRFRWTDGSIINFISWAPGKPRPVGKDKKCVYMTASREDWGDQRCLTALPYICKRSNVTKETQPPDLPTTALGGCPSDWIQFLNKCFQVQGQEPQSRVKWSEAQFSCEQQEAQLVTITNPLEQAFITASLPNVTFDLWIGLHASQRDFQWVEQEPLMYANWAPGEPSGPSPAPSGNKPTSCAVVLHSPSAHFTGRWDDRSCTEETHGFICQKGTDPSLSPSPAALPPAPGTELSYLNGTFRLLQKPLRWHDALLLCESHNASLAYVPDPYTQAFLTQAARGLRTPLWIGLAGEEGSRRYSWVSEEPLNYVGWQDGEPQQPGGCTYVDVDGAWRTTSCDTKLQGAVCGVSSGPPPPRRISYHGSCPQGLADSAWIPFREHCYSFHMELLLGHKEARQRCQRAGGAVLSILDEMENVFVWEHLQSYEGQSRGAWLGMNFNPKGGTLVWQDNTAVNYSNWGPPGLGPSMLSHNSCYWIQSNSGLWRPGACTNITMGVVCKLPRAEQSSFSPSALPENPAALVVVLMAVLLLLALLTAALILYRRRQSIERGAFEGARYSRSSSSPTEATEKNILVSDMEMNEQQE
# What was measured:
# Test in all cases: glycan array binding signal (z-score within array); higher = stronger binding
# Settings in all cases: glycan notation: IUPAC condensed, linker removed
# [1] = target: Neu5Ac(a2-6)Gal(b1-4)GlcNAc(b1-3)Gal(b1-4)GlcNAc(b1-6)[Gal(b1-3)]GalNAc
# Method in brief: (§1)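 Glycan array data were curated from 3228 arrays in the Consortium for Functional Glycomics database and kept only where the protein sequence was available. Glycan names were converted to IUPAC-condensed notation, and columns mapping to the same glycan were averaged. The binding signal is a within-array Z-score, averaged across arrays of the same protein sequence at different concentrations or buffers and across linkers. Negative Z-scores can be read as non-binding.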
# [2] = target: Neu5Ac(a2-6)Gal(b1-4)GlcNAc(b1-3)Gal(b1-4)[Fuc(a1-3)]GlcNAc(b1-3)Gal(b1-4)[Fuc(a1-3)]GlcNAc
# Method in brief: as §1
# [3] = target: Neu5Ac(a2-6)Gal(b1-4)GlcNAc(b1-3)GalNAc
# Method in brief: as §1
# [4] = target: Neu5Ac(a2-6)Gal(b1-4)GlcNAc(b1-3)[Neu5Ac(a2-6)Gal(b1-4)GlcNAc(b1-6)]GalNAc
# Method in brief: as §1
# [5] = target: Neu5Ac(a2-6)Gal(b1-4)GlcNAc(b1-6)GalNAc
# Method in brief: as §1
# [6] = target: Neu5Ac(a2-6)Gal(b1-4)GlcNAc(b1-6)[Gal(b1-3)GlcNAc(b1-3)]Gal(b1-4)Glc
# Method in brief: as §1
# [7] = target: Neu5Ac(a2-6)Gal(b1-4)GlcNAc(b1-6)[Gal(b1-3)]GalNAc
# Method in brief: as §1
# [8] = target: Neu5Ac(a2-6)Gal(b1-4)GlcNAc6S
# Method in brief: as §1
# Neu5Ac(a2-6)GalNAc = target: Neu5Ac(a2-6)GalNAc
# Method in brief: as §1
# [9] = target: Neu5Ac(a2-6)GalNAc(b1-4)GlcNAc
# Method in brief: as §1
# [10] = target: Neu5Ac(a2-6)GalNAc(b1-4)GlcNAc6S
# Method in brief: as §1
# [11] = target: Neu5Ac(a2-6)GlcNAc(b1-4)GlcNAc
# Method in brief: as §1
# [12] = target: Neu5Ac(a2-6)GlcNAc(b1-4)GlcNAc(b1-4)GlcNAc
# Method in brief: as §1
# Neu5Ac(a2-8)Neu5Ac = target: Neu5Ac(a2-8)Neu5Ac
# Method in brief: as §1
# [13] = target: Neu5Ac(a2-8)Neu5Ac(a2-3)Gal(b1-3)GalNAc(b1-4)[Neu5Ac(a2-3)]Gal(b1-4)Glc
# Method in brief: as §1
# [14] = target: Neu5Ac(a2-8)Neu5Ac(a2-3)Gal(b1-3)GalNAc(b1-4)[Neu5Ac(a2-8)Neu5Ac(a2-3)]Gal(b1-4)Glc
# Method in brief: as §1
# [15] = target: Neu5Ac(a2-8)Neu5Ac(a2-3)Gal(b1-4)Glc
# Method in brief: as §1
# [16] = target: Neu5Ac(a2-8)Neu5Ac(a2-3)Gal(b1-4)GlcNAc
# Method in brief: as §1
# [17] = target: Neu5Ac(a2-8)Neu5Ac(a2-3)[Gal(b1-3)GalNAc(b1-4)]Gal(b1-4)Glc
# Method in brief: as §1
# [18] = target: Neu5Ac(a2-8)Neu5Ac(a2-3)[GalNAc(b1-4)]Gal(b1-4)Glc
# Method in brief: as §1
# [19] = target: Neu5Ac(a2-8)Neu5Ac(a2-8)Neu5Ac
# Method in brief: as §1
# [20] = target: Neu5Ac(a2-8)Neu5Ac(a2-8)Neu5Ac(a2-3)Gal(b1-4)Glc
# Method in brief: as §1
# [21] = target: Neu5Ac(a2-8)Neu5Ac(a2-8)Neu5Ac(a2-3)[Gal(b1-3)GalNAc(b1-4)]Gal(b1-4)Glc
# Method in brief: as §1
# [22] = target: Neu5Ac(a2-8)Neu5Ac(a2-8)Neu5Ac(a2-3)[GalNAc(b1-4)]Gal(b1-4)Glc
# Method in brief: as §1
# [23] = target: Neu5Ac(a2-8)Neu5Ac(a2-8)Neu5Ac(a2-8)Neu5Ac(a2-3)[GalNAc(b1-4)]Gal(b1-4)Glc
# Method in brief: as §1
# [24] = target: Neu5Ac(a2-8)Neu5Gc(a2-3)Gal(b1-4)GlcNAc
# Method in brief: as §1
# Neu5Ac(b1-6)GalNAc = target: Neu5Ac(b1-6)GalNAc
# Method in brief: as §1
# [25] = target: Neu5Ac(b2-6)Gal(b1-4)GlcNAc
# Method in brief: as §1
# Neu5Ac(b2-6)GalNAc = target: Neu5Ac(b2-6)GalNAc
# Method in brief: as §1
# [26] = target: Neu5Ac9Ac(a2-3)Gal(b1-3)GlcNAc
# Method in brief: as §1
# [27] = target: Neu5Ac9Ac(a2-3)Gal(b1-4)GlcNAc
# Method in brief: as §1
# [28] = target: Neu5Ac9Ac(a2-6)Gal(b1-4)GlcNAc
# Method in brief: as §1
# [29] = target: Neu5Gc(a2-3)Gal(b1-3)GlcNAc
# Method in brief: as §1
# [30] = target: Neu5Gc(a2-3)Gal(b1-3)[Fuc(a1-4)]GlcNAc
# Method in brief: as §1
# Neu5Gc(a2-3)Gal(b1-4)Glc = target: Neu5Gc(a2-3)Gal(b1-4)Glc
# Method in brief: as §1
# [31] = target: Neu5Gc(a2-3)Gal(b1-4)GlcNAc
# Method in brief: as §1
# [32] = target: Neu5Gc(a2-3)Gal(b1-4)GlcNAc(b1-3)Gal(b1-4)GlcNAc(b1-2)Man(a1-3)[Neu5Gc(a2-3)Gal(b1-4)GlcNAc(b1-3)Gal(b1-4)GlcNAc(b1-2)Man(a1-6)]Man(b1-4)GlcNAc(b1-4)GlcNAc
# Method in brief: as §1
# [33] = target: Neu5Gc(a2-3)Gal(b1-4)[Fuc(a1-3)]GlcNAc
# Method in brief: as §1
# [34] = target: Neu5Gc(a2-6)Gal(b1-4)GlcNAc
# Method in brief: as §1
# Neu5Gc(a2-6)GalNAc = target: Neu5Gc(a2-6)GalNAc
# Method in brief: as §1
# [35] = target: Neu5Gc(a2-8)Neu5Ac(a2-3)Gal(b1-4)GlcNAc
# Method in brief: as §1
# [36] = target: Neu5Gc(a2-8)Neu5Gc(a2-3)Gal(b1-4)GlcNAc
# Method in brief: as §1
# [37] = target: Neu5Gc(a2-8)Neu5Gc(a2-3)Gal(b1-4)GlcNAc(b1-3)Gal(b1-4)GlcNAc
# Method in brief: as §1
# [38] = target: Neu5Gc(a2-8)Neu5Gc(a2-6)Gal(b1-4)GlcNAc
# Method in brief: as §1
# [39] = target: Neu5Gc(b2-6)Gal(b1-4)GlcNAc
# Method in brief: as §1
binder,measurement,setting,value
B1,glycan array binding signal (z-score),[1],-0.864
same,glycan array binding signal (z-score),[2],2.78
same,glycan array binding signal (z-score),[3],-0.491
same,glycan array binding signal (z-score),[4],-0.518
same,glycan array binding signal (z-score),[5],0.474
same,glycan array binding signal (z-score),[6],-0.046
same,glycan array binding signal (z-score),[7],-0.138
same,glycan array binding signal (z-score),[8],0.125
same,glycan array binding signal (z-score),Neu5Ac(a2-6)GalNAc,-0.104
same,glycan array binding signal (z-score),[9],-0.431
same,glycan array binding signal (z-score),[10],-0.246
same,glycan array binding signal (z-score),[11],2.23
same,glycan array binding signal (z-score),[12],-0.668
same,glycan array binding signal (z-score),Neu5Ac(a2-8)Neu5Ac,-0.572
same,glycan array binding signal (z-score),[13],0.518
same,glycan array binding signal (z-score),[14],0.548
same,glycan array binding signal (z-score),[15],-0.412
same,glycan array binding signal (z-score),[16],-0.329
same,glycan array binding signal (z-score),[17],0.014
same,glycan array binding signal (z-score),[18],-0.037
same,glycan array binding signal (z-score),[19],0.198
same,glycan array binding signal (z-score),[20],0.246
same,glycan array binding signal (z-score),[21],0.644
same,glycan array binding signal (z-score),[22],0.628
same,glycan array binding signal (z-score),[23],-0.08
same,glycan array binding signal (z-score),[24],-0.753
same,glycan array binding signal (z-score),Neu5Ac(b1-6)GalNAc,-0.103
same,glycan array binding signal (z-score),[25],0.631
same,glycan array binding signal (z-score),Neu5Ac(b2-6)GalNAc,0.322
same,glycan array binding signal (z-score),[26],-0.884
same,glycan array binding signal (z-score),[27],-0.654
same,glycan array binding signal (z-score),[28],0.028
same,glycan array binding signal (z-score),[29],0.215
same,glycan array binding signal (z-score),[30],-0.098
same,glycan array binding signal (z-score),Neu5Gc(a2-3)Gal(b1-4)Glc,-0.136
same,glycan array binding signal (z-score),[31],-0.092
same,glycan array binding signal (z-score),[32],0.05
same,glycan array binding signal (z-score),[33],0.147
same,glycan array binding signal (z-score),[34],-0.099
same,glycan array binding signal (z-score),Neu5Gc(a2-6)GalNAc,-0.224
same,glycan array binding signal (z-score),[35],-0.032
same,glycan array binding signal (z-score),[36],-0.627
same,glycan array binding signal (z-score),[37],-1.17
same,glycan array binding signal (z-score),[38],-0.595
same,glycan array binding signal (z-score),[39],1.11

# Looked up one by one from above, 2 records:
binder,measurement,setting,value
B1,glycan array binding signal (z-score),Neu5Gc(a2-6)GalNAc,-0.224
same,glycan array binding signal (z-score),Neu5Ac(a2-8)Neu5Ac,-0.572
